For at least one compound, name, drawing or mass did not settle the structure.
Tested on: retinal ganglion cells (RGCs)
Experiment: RGC survival after optic nerve injury, TUJ1 staining of retinal whole mount
Format: in vivo, mice
Conditions: 2 weeks post-injury

## CO[C@H]1C[C@@H]2CC[C@@H](C)[C@@](O)(O2)C(=O)C(=O)N2CCCC[C@H]2C(=O)O[C@H]([C@H](C)C[C@@H]2CC[C@@H](O)[C@H](OC)C2)CC(=O)[C@H](C)/C=C(\C)[C@@H](O)[C@@H](OC)C(=O)[C@H](C)C[C@H](C)/C=C/C=C/C=C/1C [rapamycin]
PTEN-/- mice with rapamycin vs PTEN-/-
  RGC survival (TUJ1+ RGCs): significantly less survived RGCs
SOCS3-/- mice with vs without rapamycin
  RGC survival (TUJ1+ RGCs): no significant difference

Reference: patent US10918697B2, “Co-activation of mTOR and STAT3 pathways to promote neuronal survival and regeneration” (Children's Medical Center Corporation, priority 2011, dated 2021)
